Measured values published in US9683019B2 (priority 2013, dated 2017).

Assay: general procedure: Fmoc solid-phase peptide synthesis; 2-chlorotrityl chloride-PS-resin; Fmoc Rink-Amide-AM-PS-resin; BAL-AM-PS-resin
Details: conjugation step, TFA salt

Substance: PEPTIDE1{[pE].R.P.C.L.S.C.K.G.P.[D-Nle].[NHPhenethyl]}|CHEM1{[BCN-trz-PEG23-FA]}$PEPTIDE1,PEPTIDE1,4:R3-7:R3|PEPTIDE1,CHEM1,8:R3-1:R2$$$V2.0
- conjugation yield: 21%

Some peptides are written in HELM: one residue between dots, names in brackets for other building blocks, links after the first $.
